Article doi:10.1101/2022.04.27.489705
These are yes or no findings as the source states them, for the method shown. Binding seen in cells or lysates may run through a third protein. Some results given as binding are weak or reduced against the parent protein; the word gives no strength.

Chains of the proteins cited; added tags and fusions are not shown.
UniProt E9Q557: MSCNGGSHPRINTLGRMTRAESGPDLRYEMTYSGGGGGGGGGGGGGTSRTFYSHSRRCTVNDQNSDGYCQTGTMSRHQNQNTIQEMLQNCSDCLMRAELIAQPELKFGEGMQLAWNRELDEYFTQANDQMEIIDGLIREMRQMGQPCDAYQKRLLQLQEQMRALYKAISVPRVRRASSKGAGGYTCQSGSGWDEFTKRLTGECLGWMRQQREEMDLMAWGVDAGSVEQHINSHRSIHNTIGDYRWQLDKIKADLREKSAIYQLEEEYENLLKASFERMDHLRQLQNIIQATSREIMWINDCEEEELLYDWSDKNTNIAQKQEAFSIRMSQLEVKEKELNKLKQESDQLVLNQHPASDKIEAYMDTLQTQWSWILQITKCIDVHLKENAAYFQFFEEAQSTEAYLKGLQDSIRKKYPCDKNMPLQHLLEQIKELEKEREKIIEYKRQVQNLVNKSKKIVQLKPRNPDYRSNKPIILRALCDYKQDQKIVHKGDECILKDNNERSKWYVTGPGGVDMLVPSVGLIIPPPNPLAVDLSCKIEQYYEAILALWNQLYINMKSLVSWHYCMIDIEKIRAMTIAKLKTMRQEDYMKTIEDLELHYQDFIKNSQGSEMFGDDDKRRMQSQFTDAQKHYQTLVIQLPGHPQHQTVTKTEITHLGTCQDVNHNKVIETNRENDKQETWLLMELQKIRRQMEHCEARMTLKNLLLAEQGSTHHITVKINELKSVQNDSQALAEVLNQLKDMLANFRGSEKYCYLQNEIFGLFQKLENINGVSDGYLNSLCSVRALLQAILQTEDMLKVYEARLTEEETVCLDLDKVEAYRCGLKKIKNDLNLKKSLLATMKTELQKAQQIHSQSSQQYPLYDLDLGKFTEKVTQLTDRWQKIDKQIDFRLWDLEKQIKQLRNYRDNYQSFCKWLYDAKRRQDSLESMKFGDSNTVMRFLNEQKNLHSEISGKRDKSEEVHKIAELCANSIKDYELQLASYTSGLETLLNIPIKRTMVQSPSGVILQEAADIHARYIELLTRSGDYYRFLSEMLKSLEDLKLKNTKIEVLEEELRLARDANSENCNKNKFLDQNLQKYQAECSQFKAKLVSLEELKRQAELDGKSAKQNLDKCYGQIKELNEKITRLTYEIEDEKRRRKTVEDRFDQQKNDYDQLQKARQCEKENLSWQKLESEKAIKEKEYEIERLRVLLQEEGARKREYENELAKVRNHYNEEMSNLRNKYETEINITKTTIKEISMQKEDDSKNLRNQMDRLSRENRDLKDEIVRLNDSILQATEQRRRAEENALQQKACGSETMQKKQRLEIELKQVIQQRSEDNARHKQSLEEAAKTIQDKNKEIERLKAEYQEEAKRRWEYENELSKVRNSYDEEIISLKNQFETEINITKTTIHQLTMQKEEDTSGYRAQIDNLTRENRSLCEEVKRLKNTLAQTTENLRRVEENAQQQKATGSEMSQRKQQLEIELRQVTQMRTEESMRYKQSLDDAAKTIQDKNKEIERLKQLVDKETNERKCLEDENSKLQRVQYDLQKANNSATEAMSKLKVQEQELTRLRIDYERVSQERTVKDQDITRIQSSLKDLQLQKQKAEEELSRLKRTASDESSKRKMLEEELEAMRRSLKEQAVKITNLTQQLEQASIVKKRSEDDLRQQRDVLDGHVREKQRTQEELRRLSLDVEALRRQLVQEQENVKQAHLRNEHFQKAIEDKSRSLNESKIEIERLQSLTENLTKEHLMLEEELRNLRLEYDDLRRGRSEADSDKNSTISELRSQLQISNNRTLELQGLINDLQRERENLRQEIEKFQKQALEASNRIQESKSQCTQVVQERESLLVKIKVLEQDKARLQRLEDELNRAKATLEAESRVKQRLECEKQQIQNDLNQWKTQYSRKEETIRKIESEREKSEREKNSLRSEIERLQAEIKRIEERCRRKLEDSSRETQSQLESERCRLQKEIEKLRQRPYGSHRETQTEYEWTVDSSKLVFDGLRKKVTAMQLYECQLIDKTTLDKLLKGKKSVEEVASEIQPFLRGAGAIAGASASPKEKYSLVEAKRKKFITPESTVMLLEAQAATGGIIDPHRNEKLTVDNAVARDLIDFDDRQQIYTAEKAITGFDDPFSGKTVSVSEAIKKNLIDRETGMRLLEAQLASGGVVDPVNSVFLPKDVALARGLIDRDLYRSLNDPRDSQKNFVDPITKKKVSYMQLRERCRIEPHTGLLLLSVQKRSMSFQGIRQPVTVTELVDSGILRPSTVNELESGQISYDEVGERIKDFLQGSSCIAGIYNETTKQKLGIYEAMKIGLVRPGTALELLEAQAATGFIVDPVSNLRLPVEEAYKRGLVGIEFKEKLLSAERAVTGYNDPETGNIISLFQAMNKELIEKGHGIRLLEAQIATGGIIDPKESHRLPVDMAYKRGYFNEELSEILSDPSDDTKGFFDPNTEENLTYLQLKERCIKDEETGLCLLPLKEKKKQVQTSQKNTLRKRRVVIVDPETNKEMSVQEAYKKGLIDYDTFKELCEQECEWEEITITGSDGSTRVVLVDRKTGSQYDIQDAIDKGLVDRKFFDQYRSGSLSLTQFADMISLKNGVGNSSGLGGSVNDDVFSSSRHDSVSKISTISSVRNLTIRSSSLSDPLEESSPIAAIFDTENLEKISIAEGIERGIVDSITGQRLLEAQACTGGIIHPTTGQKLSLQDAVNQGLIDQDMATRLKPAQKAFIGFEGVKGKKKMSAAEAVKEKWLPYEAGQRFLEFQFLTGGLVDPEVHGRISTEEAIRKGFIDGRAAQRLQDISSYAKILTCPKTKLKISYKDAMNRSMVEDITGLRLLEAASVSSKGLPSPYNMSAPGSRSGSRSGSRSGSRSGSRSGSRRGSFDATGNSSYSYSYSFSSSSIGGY

How the values were obtained:
[1] = target: T1, desmoglein 2 (mouse (endogenous in HL-1)) (UniProt O55111); test: co-IP
T1 sequence: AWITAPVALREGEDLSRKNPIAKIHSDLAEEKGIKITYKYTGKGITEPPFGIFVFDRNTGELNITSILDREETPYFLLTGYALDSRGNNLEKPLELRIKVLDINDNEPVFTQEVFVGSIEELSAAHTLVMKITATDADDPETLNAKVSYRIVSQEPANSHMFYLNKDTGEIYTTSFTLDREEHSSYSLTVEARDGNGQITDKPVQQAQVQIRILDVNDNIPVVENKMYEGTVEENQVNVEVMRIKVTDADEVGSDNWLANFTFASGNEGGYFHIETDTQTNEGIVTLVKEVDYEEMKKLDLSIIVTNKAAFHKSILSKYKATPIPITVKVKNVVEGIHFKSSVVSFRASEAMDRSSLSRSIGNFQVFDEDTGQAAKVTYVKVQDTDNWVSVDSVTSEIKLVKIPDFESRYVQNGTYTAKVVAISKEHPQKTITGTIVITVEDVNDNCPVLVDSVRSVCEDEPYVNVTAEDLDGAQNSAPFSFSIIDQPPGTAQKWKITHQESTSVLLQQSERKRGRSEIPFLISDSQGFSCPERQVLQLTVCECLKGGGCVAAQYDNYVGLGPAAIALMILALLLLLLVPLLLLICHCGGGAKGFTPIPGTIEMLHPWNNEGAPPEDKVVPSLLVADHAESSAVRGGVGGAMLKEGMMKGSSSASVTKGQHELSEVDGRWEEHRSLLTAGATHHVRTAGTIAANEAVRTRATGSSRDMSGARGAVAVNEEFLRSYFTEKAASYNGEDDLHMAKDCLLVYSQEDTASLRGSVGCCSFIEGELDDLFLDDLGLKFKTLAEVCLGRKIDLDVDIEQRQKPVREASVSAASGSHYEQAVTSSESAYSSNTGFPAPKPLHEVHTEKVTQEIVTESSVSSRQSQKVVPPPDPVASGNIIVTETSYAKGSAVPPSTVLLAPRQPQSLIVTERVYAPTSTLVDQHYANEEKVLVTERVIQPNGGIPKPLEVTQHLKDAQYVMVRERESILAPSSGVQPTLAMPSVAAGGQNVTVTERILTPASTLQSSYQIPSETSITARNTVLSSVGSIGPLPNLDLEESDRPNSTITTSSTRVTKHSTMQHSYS

[2] = target: desmoplakin (mouse (endogenous in HL-1)) (UniProt E9Q557); test: co-IP

What does the source list for “epidermal growth factor receptor (from UniProt Q01279 25-1210)”?
binding [1]: binds; binding [2]: binds
